Results are given in words; binding and its absence hold for the method and conditions named. Binding seen in cells or lysates may run through a third protein. Some entries that bind do so weakly or less than the wild type. Sequences can lack the tags named with a protein.

Amino acid sequences for entries named in this document (tags omitted).
UniProt A8HYP5: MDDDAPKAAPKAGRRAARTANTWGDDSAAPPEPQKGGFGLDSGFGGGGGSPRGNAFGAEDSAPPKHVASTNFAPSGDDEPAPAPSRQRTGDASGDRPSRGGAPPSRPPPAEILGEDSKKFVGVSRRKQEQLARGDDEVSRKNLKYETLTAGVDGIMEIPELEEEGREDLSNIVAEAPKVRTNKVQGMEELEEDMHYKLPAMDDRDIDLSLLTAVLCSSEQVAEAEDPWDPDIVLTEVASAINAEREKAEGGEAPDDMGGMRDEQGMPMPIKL

The experiment has as its target T1, IFT25-HA-GFP (C. reinhardtii) (UniProt B8LIX8).
T1 sequence: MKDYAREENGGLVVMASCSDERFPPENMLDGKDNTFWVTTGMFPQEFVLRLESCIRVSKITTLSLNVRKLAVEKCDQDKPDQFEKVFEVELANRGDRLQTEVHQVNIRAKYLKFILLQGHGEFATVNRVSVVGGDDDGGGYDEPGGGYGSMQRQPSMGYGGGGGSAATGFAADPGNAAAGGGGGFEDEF
Kind of experiment: co-IP.

Consider IFT43 (from UniProt A8HYP5 1-272), for which the binding result is reported as “binds”.

The record behind these values is publication doi:10.1101/2022.02.06.479262.
